Laboratory results reported in PubChem BioAssay AID493014 (National Center for Advancing Translational Sciences (NCATS), 2011).
Some of the results follow. Further columns of the screen follow, without active or inactive calls. Most of these compounds were active or inconclusive in the main read-out, so they are no random draw. Words in brackets tell the shape of the fitted curve; partial curves, single points and poor fits give uncertain potencies.

Test: qHTS Assay to Find Inhibitors of Chronic Active B-Cell Receptor Signaling
Details: ABC-DLBCL IkBa-CBG/CBR reporter, luminescence ratio (green luciferase fused to IkBa over red control in TMD8 lymphoma cells), 4 h
Procedure, shortened: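 TMD8 ABC-DLBCL cells carrying doxycycline-inducible green luciferase fused to IkappaBalpha plus unfused red luciferase were exposed to compounds (up to 46 uM) for 4 hrs at 37C. Activity came from the overlap-corrected green/red luminescence ratio.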

[1] = measured here: CBR red luminescence, cell number
[2] = measured here: IkBa-CBG green luminescence

| SMILES | AC50 [1] | AC50 [2] |
| --- | --- | --- |
| C[N+]12CCCCC1[C@@H](CO)CCC2 (stereo partly drawn) | 0.1 µM [rising, full curve, poor fit] |  |
| COc1ccc(CNc2nc3ccccc3s2)cc1OC | 2.82 µM [rising, full curve, poor fit] |  |
| CC(=O)Nc1cccc(/C(C)=N\NC(=O)c2ccc(Cn3nc([N+](=O)[O-])c(Cl)c3C)o2)c1 | 23.1 µM [falling, single point] |  |
| O=C(CSc1cccc[n+]1[O-])Nc1cccc(Oc2ccccc2)c1 | 11.2 µM [falling, single point] |  |
| O=C(Nc1cc(N2CCOCC2)ncn1)NC1(C(F)(F)F)Oc2ccc(Cl)cc2O1 (stereo not drawn) | 9.2 µM [falling, partial curve, poor fit] |  |
| Cc1ccc(NC(=O)CSc2nc(=O)n(Cc3ccco3)c3c2CCC3)cc1F | 15.8 µM [falling, single point] |  |
| COc1cccc(Oc2ccc(C(F)(F)F)cc2NC(=O)CN2C(=O)NC3(CCCC3)C2=O)c1 | 4.11 µM [rising, single point] |  |
| COc1cc([N+](=O)[O-])cc(/C=N/NC(=O)C(C)Nc2ccccc2C)c1O (stereo not drawn) | 16.4 µM [falling, single point] | 18.4 µM [rising, partial curve, poor fit] |
| COc1ccc(CCNC(=O)CN2c3cccc4cccc(c34)S2(=O)=O)cc1OC | 2.24 µM [rising, full curve, poor fit] |  |
| Nc1c(C(=O)O)cnn1-c1ccccc1 | 0.1 µM [rising, full curve, poor fit] |  |
| CC(C)(C)NC(=O)CN(C(=O)c1csnn1)c1ccccc1-c1ccccc1 | 35.5 µM [rising, partial curve, poor fit] |  |
| Cc1nc(/N=C(\N)Nc2ccccc2)nc2ccccc12 | 0.0891 µM [falling, full curve, poor fit] |  |
| CCc1nnc(NS(=O)(=O)c2ccc(N/C=C/C(=O)c3ccc(C)cc3)cc2)s1 | 13 µM [rising, partial curve, poor fit] |  |
| COc1ccc(CS(=O)(=O)/C(Cl)=C(/Cl)C(=O)Nc2ccc(OC)nc2)cc1 | 1.03 µM [falling, full curve, poor fit] | 0.82 µM [rising, full curve, poor fit] |
| C/C(CC(=O)NCCN1CCOCC1)=N\NC(=O)c1ccncc1 | 6.31 µM [falling, partial curve, poor fit] |  |
| CC1C(=O)NN=C1C(=O)N/N=C\C(Br)=C\c1ccccc1 (stereo not drawn) | 0.631 µM [falling, full curve, poor fit] |  |
| COc1ccc(NC(=O)CN2CCCCC2)cc1 | 1.3 µM [falling, full curve, poor fit] | 1.16 µM [rising, full curve, poor fit] |
| C/C=C\C=C/C(=O)Nc1cccc(C2=NOC3(C2)C[C@@H](C(N)=O)N(C(=O)COc2ccc(Cl)cc2)C3)c1 (stereo partly drawn) | 20 µM [falling, single point] |  |
| CCOC(=O)CCCNC(=O)c1cncc(Br)c1 | 7.08 µM [falling, partial curve, poor fit] |  |
| CCCCSc1nnc(-c2ccccc2NC(C)=O)c(=O)[nH]1 | 35.5 µM [falling, single point] |  |

| SMILES | AC50 [1] | AC50 [2] |
| --- | --- | --- |
| O=C1C(Cl)=C(NCCN2CCOCC2)C(=O)c2ccccc21 | 35.5 µM [falling, single point] |  |
| CCOC(=O)N/N=C(\CCC(=O)O)c1cccs1 | 35.5 µM [falling, single point] |  |
| O=C(/C=C/c1cccc([N+](=O)[O-])c1)NCCSCc1c(Cl)cccc1Cl | 2.31 µM [rising, partial curve] |  |
| COc1ccc(Cn2c(C(C)C)nc3sc4ccccc4c(=O)c3c2=O)cc1 | 7.94 µM [rising, partial curve] |  |
| Cc1cc(=O)oc2cc(OCC(=O)NC3CCCCC3)ccc12 | 1.41 µM [rising, full curve, poor fit] |  |
| C/C(=N\NC(=O)c1ccc(Cl)cc1)c1ccccn1 | 35.5 µM [falling, single point] | 12.6 µM [falling, partial curve, poor fit] |
| COc1ccc(N(C(=O)CCl)C(C(=O)NC2CCCCC2)c2cccnc2)cc1 (stereo not drawn) | 5.8 µM [falling, partial curve, poor fit] |  |
| O=C(NC1=NCCS1)c1cccc(N2C(=O)c3ccccc3C2=O)c1 | 6.31 µM [rising, single point] |  |
| CCc1ccc(CNCc2ccc(F)cc2)cc1 | 20.6 µM [rising, single point] |  |
| CCC(C)Sc1cccc(-c2nc3ccccn3c2NCc2ccccc2)c1 (stereo not drawn) | 29.1 µM [falling, single point] |  |
| CSc1ncccc1C(=O)OCC(=O)N(C)C1CCS(=O)(=O)C1 (stereo not drawn) | 32.6 µM [falling, single point] |  |
| CN(C)S(=O)(=O)c1ccc(NC(=O)CN2CCCC2c2ccc3c(c2)OCCCO3)cc1 (stereo not drawn) | 2.06 µM [rising, full curve, poor fit] |  |
| CC1CN(C(=O)CN2C(=O)NC3(CCCC3)C2=O)C(=Nc2cccc(S(=O)(=O)N(C)C)c2)S1 (stereo not drawn) | 29.1 µM [rising, single point] |  |
| Cc1cccc(NNC(=S)Nc2c(C)cccc2C)c1 | 35.5 µM [falling, single point] |  |
| CCOC(=O)C1=C(C)NC(C)=C(C(=O)OC)C1c1cccc([N+](=O)[O-])c1 (stereo not drawn) | 0.731 µM [rising, full curve, poor fit] |  |
| Cc1nnc(SCCn2c(N3CCCCC3)nc3c2c(=O)[nH]c(=O)n3C)s1 | 29.1 µM [rising, single point] |  |
| Nc1cc(OC(=O)c2c(F)cccc2Cl)nn1S(=O)(=O)c1ccccc1 | 11.2 µM [falling, partial curve, poor fit] |  |
| Cc1ccc(NC(=S)NC2CCCC2)cc1C | 23.1 µM [falling, single point] |  |
| N=c1c(S(=O)(=O)c2ccccc2)cc2c(=O)n3ccccc3nc2n1C1CCCC1 | 1.26 µM [rising, full curve, poor fit] |  |

Single values from the list.
Under AC50 [1], COc1ccc(Cn2c(C(C)C)nc3sc4ccccc4c(=O)c3c2=O)cc1 is entered as 7.94 µM [rising, partial curve]
Under AC50 [1], O=C1C(Cl)=C(NCCN2CCOCC2)C(=O)c2ccccc21 is entered as 35.5 µM [falling, single point]

Another view of part of the listing above:
SMILES | AC50 [1] | AC50 [2]
CCC(C)Sc1cccc(-c2nc3ccccn3c2NCc2ccccc2)c1 (stereo not drawn) | 29.1 µM [falling, single point] | 
CSc1ncccc1C(=O)OCC(=O)N(C)C1CCS(=O)(=O)C1 (stereo not drawn) | 32.6 µM [falling, single point] | 
